These are yes or no findings as the source states them, for the method shown. In cells and extracts the contact can be indirect. Some entries that bind do so weakly or less than the wild type.

In test [1] the target is T1, c-Jun (human (endogenous in KYSE150)), P05412.
T1 chain: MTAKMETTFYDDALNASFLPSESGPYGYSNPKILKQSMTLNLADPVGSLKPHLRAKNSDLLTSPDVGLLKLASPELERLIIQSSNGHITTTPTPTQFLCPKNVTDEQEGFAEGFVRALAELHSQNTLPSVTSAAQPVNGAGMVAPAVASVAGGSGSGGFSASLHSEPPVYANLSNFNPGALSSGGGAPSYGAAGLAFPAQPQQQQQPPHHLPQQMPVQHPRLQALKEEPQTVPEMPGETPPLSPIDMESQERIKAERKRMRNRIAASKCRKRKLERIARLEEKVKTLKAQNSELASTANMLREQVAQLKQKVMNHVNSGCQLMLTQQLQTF
In words: co-IP; nuclear protein-enriched extracts of KYSE150 cells, untreated or treated with MLN4924 (1 µM, 24 h) or TNF-α (30 ng/mL, 1 h); rabbit anti-c-Jun antibody; Western blot. The note with it: remark: other sources report otherwise. For orientation: In western blotting, separated proteins are transferred to a membrane and probed.

Test [2] deals with nuclear factor kappa B p65 subunit (NFκB/p65) (human (endogenous in KYSE150)), Q04206. The test can be described thus: co-IP; nuclear extracts (500 µg/mL) of KYSE150 cells, untreated or treated with MLN4924 (1 µM, 24 h) or TNF-α (30 ng/mL, 1 h); anti-NFκB/p65 antibody overnight at 4 °C, Protein G magnetic beads, washed with 10 mM HEPES pH 7.6; Western blot. The note with it: remark: other sources report otherwise.

B1: inhibitor of nuclear factor kappa B-alpha (IκB-α), P25963 1-317 (protein)
chain: MFQAAERPQEWAMEGPRDGLKKERLLDDRHDSGLDSMKDEEYEQMVKELQEIRLEPQEVPRGSEPWKQQLTEDGDSFLHLAIIHEEKALTMEVIRQVKGDLAFLNFQNNLQQTPLHLAVITNQPEIAEALLGAGCDPELRDFRGNTPLHLACEQGCLASVGVLTQSCTTPHLHSILKATNYNGHTCLHLASIHGYLGIVELLVSLGADVNAQEPCNGRTALHLAVDLQNPDLVSLLLKCGADVNRVTYQGYSPYQLTWGRPSTRIQQQLGQLTLENLQMLPESEDEESYDTESEFTEFTEDELPYDDCVFGGQRLTL
With B1, the binding entry in test [1] and in test [2] was “binds” throughout.

B2: phospho-inhibitor of nuclear factor kappa B-alpha (phospho-IκB-α (Ser32)), P25963 1-317 (protein)
chain: MFQAAERPQEWAMEGPRDGLKKERLLDDRHDSGLDSMKDEEYEQMVKELQEIRLEPQEVPRGSEPWKQQLTEDGDSFLHLAIIHEEKALTMEVIRQVKGDLAFLNFQNNLQQTPLHLAVITNQPEIAEALLGAGCDPELRDFRGNTPLHLACEQGCLASVGVLTQSCTTPHLHSILKATNYNGHTCLHLASIHGYLGIVELLVSLGADVNAQEPCNGRTALHLAVDLQNPDLVSLLLKCGADVNRVTYQGYSPYQLTWGRPSTRIQQQLGQLTLENLQMLPESEDEESYDTESEFTEFTEDELPYDDCVFGGQRLTL
modifications: here or on the partner: phosphoserine at 32
In the case of B2, the binding entry in test [2] was “binds”.

Source of the values: PMC7915196.
